From patent US4734416A, “Pharmaceutically useful carbostyril derivatives” (Otsuka Pharmaceutical Co., Ltd., priority 1978, dated 1988)

Test: in vivo
Conditions: mouse, iv
Experimental: Mice of ddy-strain having 20-22 g of body weight are used. One test group consists of 10 mice.
Oral administration: Compound to be tested is suspended in 1% Gummi Arabicum physiological NaCl aqueous solution.
Intravenuous administration: Compound to be tested is dissolved in 50% propyleneglycol aqueous solution.

CN1C(=O)CN=C(c2ccccc2)c2cc(Cl)ccc21 [Diazepam, reference compound]
LD50 (female mice): 58 mg/kg
LD50 (male mice): 59 mg/kg
